The target in assay [1] is T1, GFP-U1-A (Arabidopsis thaliana) (UniProt Q39244).
T1 sequence: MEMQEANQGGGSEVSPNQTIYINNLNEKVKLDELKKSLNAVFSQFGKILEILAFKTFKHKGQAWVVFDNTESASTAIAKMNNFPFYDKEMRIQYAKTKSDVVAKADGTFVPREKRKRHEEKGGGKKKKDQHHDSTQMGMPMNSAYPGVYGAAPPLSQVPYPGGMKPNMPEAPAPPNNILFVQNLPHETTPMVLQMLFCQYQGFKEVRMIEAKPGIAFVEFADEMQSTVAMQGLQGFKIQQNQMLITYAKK
Kind of assay: co-IP; proteins transiently co-expressed in N. benthamiana; immunoprecipitation with a GFP-affinity matrix; blots with GFP- and MYC-specific antibodies.

By UniProt entry, the sequences of proteins in these tests, tags left out. Where a name states a change or a piece, a line headed by the entry shows the natural chain unless it says otherwise.
UniProt Q56XE4: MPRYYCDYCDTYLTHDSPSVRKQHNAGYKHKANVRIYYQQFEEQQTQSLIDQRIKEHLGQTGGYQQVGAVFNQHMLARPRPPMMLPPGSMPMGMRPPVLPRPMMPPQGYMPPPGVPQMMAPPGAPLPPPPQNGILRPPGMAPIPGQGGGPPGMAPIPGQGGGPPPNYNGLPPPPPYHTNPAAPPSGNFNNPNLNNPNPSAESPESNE

In assay [2] the target is GFP-U1-C (Arabidopsis thaliana) (UniProt Q56XE4). Described as above.
Assay [3] has as its target RFP-U1-C (Arabidopsis thaliana) (UniProt Q56XE4). Kind of assay: co-IP; proteins transiently co-expressed in N. benthamiana; RFP-trap beads (Chromotek), 1 h at 4 °C; lysis buffer 50 mM Tris-HCl pH 7.5, 150 mM NaCl, 10% glycerol, 0.5% Triton X-100, 0.5% Nonidet P 40 Substitute; blots with RFP-, HA- and G/YFP-specific antibodies.
The target is the same in assay [4]. As to the kind of experiment: co-IP; as a1, with RNase A at a final concentration of 10 µg ml^-1 added to the IP samples.

No constants are given. Whether binding was seen depends on the method and setting. In cells and extracts the contact can be indirect. Binding calls can cover weak binding; strength is not graded here. Sequences can lack the tags named with a protein.

As to MYC-CFI68 (Arabidopsis thaliana), in assay [1], the binding result is “binds”.

B1: MYC-tagged CBP20 (protein, UniProt Q9XFD1 1-257)
chain: MASLFKEQAKLSAYRDRRFSGTQEEFDEALRASTTVYIGNVSFYTTEEQLYELFSRAGEIKKIIMGLDKNTKTPCGFCFVLFYSREDTEDAVKYISGTILDDRPIRVDFDWGFQEGRQWGRGRSGGQVRDEYRTDYDPARGGYGKLVQKELEAQRQLVDYGTGSLGAYPQAAPTNYGNGRRGGGNYGQGGQNRHGRGDYHRKRQRDDDRYGRDNSRRNTDHESRRDTDSDMRPEKNPRFRESGDSDDDGEDDRKRRS
B1: the binding entry in assay [2] was “binds”.

B2: HA-CPSF73-I (protein, UniProt Q9C952 1-693)
chain: MASSSTSLKRREQPISRDGDQLIVTPLGAGSEVGRSCVYMSFRGKNILFDCGIHPAYSGMAALPYFDEIDPSSIDVLLITHFHIDHAASLPYFLEKTTFNGRVFMTHATKAIYKLLLTDYVKVSKVSVEDMLFDEQDINKSMDKIEVIDFHQTVEVNGIKFWCYTAGHVLGAAMFMVDIAGVRILYTGDYSREEDRHLRAAELPQFSPDICIIESTSGVQLHQSRHIREKRFTDVIHSTVAQGGRVLIPAFALGRAQELLLILDEYWANHPDLHNIPIYYASPLAKKCMAVYQTYILSMNDRIRNQFANSNPFVFKHISPLNSIDDFNDVGPSVVMATPGGLQSGLSRQLFDSWCSDKKNACIIPGYMVEGTLAKTIINEPKEVTLMNGLTAPLNMQVHYISFSAHADYAQTSTFLKELMPPNIILVHGEANEMMRLKQKLLTEFPDGNTKIMTPKNCESVEMYFNSEKLAKTIGRLAEKTPDVGDTVSGILVKKGFTYQIMAPDELHVFSQLSTATVTQRITIPFVGAFGVIKHRLEKIFESVEFSTDEESGLPALKVHERVTVKQESEKHISLQWSSDPISDMVSDSIVALILNISREVPKIVMEEEDAVKSEEENGKKVEKVIYALLVSLFGDVKLGENGKLVIRVDGNVAQLDKESGEVESEHSGLKERVRVAFERIQSAVKPIPLSAS
For B2, the binding result in assay [3] and in assay [4] was “binds” each time.

B3: HA-FY (protein, UniProt Q6NLV4 1-647)
chain: MYAGGDMHRGSQMPQPPMMRQSSASSTNINPDYHHPSGPFDPNVDSFGAKRMRKHTQRRAVDYTSTVVRYIQARTWQRDSRDRTTLQPTPAAAVDMLPTVAYSDNPSTSFAAKFVHASLNKNRCSINRVLWTPSGRRLITGSQSGEFTLWNGQSFNFEMILQAHDQPIRSMVWSHNENYMVSGDDGGTLKYWQNNMNNVKANKTAHKESIRDLSFCKTDLKFCSCSDDTTVKVWDFTKCVDESSLTGHGWDVKSVDWHPTKSLLVSGGKDQLVKLWDTRSGRELCSLHGHKNIVLSVKWNQNGNWLLTASKDQIIKLYDIRTMKELQSFRGHTKDVTSLAWHPCHEEYFVSGSSDGSICHWIVGHENPQIEIPNAHDNSVWDLAWHPIGYLLCSGSNDHTTKFWCRNRPADNPRDVLMQNQGYNEQGFGRQPDNFQPSEASPIPGAFVPGLTRNEGTIPGIGIAMPFDASSQGDHKQPLPGSMALGAPPLPPGPHPSLLGSGQQQGYQQQQQHQGHPQQMLPMPNMPHHQLPPSSHMPLHPHHLPRPMQMPPHGHMPPPSMPMSHQMPGSMGMQGGMNPQMSQSHFMGAPSGVFQGQPNSGGPQMYPQGRGGFNRPQMIPGYNNPFQQQQQPPLPPGPPPNNNQQHQ
Consider B3, for which the binding result in assay [3] and in assay [4] was “binds” in each case.

Values taken from PMC11489095.
